Test results taken from article PMC6393709.
Results are given in words; binding and its absence hold for the method and conditions named. In cells and extracts the contact can be indirect. Some entries that bind do so weakly or less than the wild type.

Amino acid sequences for entries named in this document (tags omitted).
UniProt P09874: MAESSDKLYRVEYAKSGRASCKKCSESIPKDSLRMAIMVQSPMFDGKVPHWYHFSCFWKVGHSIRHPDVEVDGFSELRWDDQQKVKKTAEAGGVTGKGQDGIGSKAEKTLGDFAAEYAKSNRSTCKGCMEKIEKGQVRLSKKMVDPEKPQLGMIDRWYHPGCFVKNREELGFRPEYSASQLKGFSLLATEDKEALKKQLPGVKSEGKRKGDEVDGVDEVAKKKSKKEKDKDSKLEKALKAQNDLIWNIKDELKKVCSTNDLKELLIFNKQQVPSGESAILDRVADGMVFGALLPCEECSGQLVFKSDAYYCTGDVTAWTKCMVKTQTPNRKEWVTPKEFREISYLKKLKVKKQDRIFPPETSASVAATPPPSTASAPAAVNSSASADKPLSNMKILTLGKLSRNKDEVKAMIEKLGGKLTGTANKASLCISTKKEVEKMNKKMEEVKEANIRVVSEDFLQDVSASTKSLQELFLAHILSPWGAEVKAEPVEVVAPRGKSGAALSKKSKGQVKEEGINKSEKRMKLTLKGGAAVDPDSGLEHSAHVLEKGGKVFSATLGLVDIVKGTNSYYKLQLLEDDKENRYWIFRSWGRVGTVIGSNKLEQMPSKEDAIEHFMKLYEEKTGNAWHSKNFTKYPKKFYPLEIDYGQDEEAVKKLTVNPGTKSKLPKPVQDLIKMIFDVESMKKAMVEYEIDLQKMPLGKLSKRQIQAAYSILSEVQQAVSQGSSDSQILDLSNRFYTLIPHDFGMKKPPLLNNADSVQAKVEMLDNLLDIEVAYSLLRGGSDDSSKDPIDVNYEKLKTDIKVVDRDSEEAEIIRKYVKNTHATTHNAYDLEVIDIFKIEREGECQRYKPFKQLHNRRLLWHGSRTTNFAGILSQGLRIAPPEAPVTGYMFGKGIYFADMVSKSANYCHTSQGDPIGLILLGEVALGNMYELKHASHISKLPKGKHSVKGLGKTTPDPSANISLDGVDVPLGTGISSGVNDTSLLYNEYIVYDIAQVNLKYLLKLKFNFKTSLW
UniProt Q13136: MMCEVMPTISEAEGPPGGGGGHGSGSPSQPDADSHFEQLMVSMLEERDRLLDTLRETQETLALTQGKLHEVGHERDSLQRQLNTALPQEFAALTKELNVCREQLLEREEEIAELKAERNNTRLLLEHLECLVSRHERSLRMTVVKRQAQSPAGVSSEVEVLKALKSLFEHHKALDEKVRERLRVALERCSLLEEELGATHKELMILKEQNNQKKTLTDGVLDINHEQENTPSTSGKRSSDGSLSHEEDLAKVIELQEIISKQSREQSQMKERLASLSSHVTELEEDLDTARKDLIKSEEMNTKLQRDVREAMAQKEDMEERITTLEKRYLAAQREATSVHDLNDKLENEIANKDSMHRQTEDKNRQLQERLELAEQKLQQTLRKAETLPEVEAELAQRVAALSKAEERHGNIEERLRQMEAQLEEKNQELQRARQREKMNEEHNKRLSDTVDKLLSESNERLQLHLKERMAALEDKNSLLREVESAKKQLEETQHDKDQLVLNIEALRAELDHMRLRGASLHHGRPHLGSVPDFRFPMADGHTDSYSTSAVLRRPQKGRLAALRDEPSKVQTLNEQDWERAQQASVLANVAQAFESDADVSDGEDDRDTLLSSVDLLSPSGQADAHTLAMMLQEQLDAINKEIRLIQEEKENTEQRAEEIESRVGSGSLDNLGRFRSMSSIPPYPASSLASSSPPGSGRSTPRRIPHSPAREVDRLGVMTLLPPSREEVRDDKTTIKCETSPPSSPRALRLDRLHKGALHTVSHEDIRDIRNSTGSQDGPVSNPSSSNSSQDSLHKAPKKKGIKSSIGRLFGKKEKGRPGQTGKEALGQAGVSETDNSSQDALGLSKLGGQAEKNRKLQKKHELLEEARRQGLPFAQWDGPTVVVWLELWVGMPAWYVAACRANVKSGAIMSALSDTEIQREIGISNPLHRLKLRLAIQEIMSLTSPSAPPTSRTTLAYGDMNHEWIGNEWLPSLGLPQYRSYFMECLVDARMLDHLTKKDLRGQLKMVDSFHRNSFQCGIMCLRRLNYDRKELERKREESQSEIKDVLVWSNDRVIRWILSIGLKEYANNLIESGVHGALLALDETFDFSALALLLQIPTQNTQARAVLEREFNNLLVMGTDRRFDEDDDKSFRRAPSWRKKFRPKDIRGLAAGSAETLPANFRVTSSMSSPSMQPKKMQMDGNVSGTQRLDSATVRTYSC
UniProt P00519: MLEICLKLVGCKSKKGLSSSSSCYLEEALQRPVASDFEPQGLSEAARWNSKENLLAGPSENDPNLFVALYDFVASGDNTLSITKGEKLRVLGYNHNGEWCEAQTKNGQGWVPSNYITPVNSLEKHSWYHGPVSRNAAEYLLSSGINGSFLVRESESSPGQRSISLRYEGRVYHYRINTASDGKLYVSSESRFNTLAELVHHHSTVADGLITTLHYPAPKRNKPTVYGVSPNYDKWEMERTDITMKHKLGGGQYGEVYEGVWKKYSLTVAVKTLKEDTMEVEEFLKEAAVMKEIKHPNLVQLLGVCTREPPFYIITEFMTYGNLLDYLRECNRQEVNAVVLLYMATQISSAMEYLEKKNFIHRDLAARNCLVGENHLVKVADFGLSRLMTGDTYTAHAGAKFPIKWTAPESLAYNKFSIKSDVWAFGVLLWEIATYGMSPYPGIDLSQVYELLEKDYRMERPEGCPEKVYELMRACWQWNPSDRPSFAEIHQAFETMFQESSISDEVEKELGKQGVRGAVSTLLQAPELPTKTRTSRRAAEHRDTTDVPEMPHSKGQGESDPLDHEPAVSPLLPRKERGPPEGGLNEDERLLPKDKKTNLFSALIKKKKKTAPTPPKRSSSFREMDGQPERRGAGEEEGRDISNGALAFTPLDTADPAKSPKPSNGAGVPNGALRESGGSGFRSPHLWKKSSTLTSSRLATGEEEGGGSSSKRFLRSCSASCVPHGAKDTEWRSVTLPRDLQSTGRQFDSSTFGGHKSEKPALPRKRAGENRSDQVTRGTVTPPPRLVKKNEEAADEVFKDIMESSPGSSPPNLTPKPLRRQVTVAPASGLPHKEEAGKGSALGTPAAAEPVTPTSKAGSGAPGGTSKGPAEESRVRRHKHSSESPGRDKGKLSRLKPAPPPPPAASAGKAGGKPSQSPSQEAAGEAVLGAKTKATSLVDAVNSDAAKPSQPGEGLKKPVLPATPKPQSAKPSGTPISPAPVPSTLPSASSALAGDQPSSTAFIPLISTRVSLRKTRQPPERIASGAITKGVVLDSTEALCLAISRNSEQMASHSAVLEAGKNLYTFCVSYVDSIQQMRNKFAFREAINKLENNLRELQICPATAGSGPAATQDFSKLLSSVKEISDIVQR

Assays:
Experiment in all cases: co-IP; clarified cell lysates with 1 μg of antibody and protein G plus/protein A-agarose overnight at 4°C (or FLAG affinity purification); western blot
[1] = molecular target: PARP1 (human (endogenous in K562)) (UniProt P09874)
[2] = molecular target: 3-FLAG-PPFIA1 (protein tyrosine phosphatase, receptor type, f polypeptide (PTPRF), leukocyte common antigen (LAR) interacting protein (liprin), alpha 1) (UniProt Q13136)
ABL1 = ABL1 (UniProt P00519)

| binding [1] | binding [2] | binding (ABL1) | Substance |
| --- | --- | --- | --- |
| binds | – | – | ABL1 (from UniProt P00519 1-1130) |
| – | binds | binds | PARP1 (from UniProt P09874 1-1014) |
| binds | – | – | PPFIA1 (detected with anti-PPFIA1 in PARP1 immunoprecipitates) (from UniProt Q13136 1-1202) |
